Measured values as given in patent US8299023B2 (Hoffmann-La Roche Inc., priority 2008, dated 2012).

Test: general procedure: Fmoc solid-phase peptide synthesis; Fmoc-Linker-BHA resin; HBTU and DIC preferred; HOBT additive
Details: whole synthesis, scale 0.25 mmole

Going from “Ac-Ile-Lys-Ppa-Arg-His-Tyr-Leu-Asn-Trp-Val-Thr-Arg-Gln-(NMe)Arg-Tyr-NH2” to “Ac-Ile-Lys-Pdp-Arg-His-Tyr-Leu-Asn-Trp-Val-Thr-Arg-Gln-(NMe)Arg-Tyr-NH2”, the isolated mass falls from 117 mg to 17 mg.

Compared with “Ac-Ile-Lys-Bqa-Arg-His-Tyr-Leu-Asn-Trp-Val-Thr-Arg-Gln-(NMe)Arg-Tyr-NH2”, “Ac-Ile-Lys-Dqa-Arg-His-Tyr-Leu-Asn-Trp-Val-Thr-Arg-Gln-(NMe)Arg-Tyr-NH2” is lower in isolated mass: 79 mg for the first, 22 mg for the second.

First: Ac-Ile-Lys-Appa-Arg-His-Tyr-Leu-Asn-Trp-Val-Thr-Arg-Gln-(NMe)Arg-Tyr-NH2
Second: Ac-Ile-Lys-Cip-Arg-His-Tyr-Leu-Asn-Trp-Val-Thr-Arg-Gln-(NMe)Arg-Tyr-NH2
The isolated mass of the first is higher: 98 mg for the first, 16 mg for the second.

Compared with “Ac-Ile-Lys-HomPqa-Arg-His-Tyr-Leu-Asn-Trp-Val-Thr-Arg-Gln-(NMe)Arg-Tyr-NH2”, “Ac-Ile-Lys-Cba-Arg-His-Tyr-Leu-Asn-Trp-Val-Thr-Arg-Gln-(NMe)Arg-Tyr-NH2” is higher in isolated mass: 11 mg for the first, 18 mg for the second.

First: Ac-Ile-Lys-Pipa-Arg-His-Tyr-Leu-Asn-Trp-Val-Thr-Arg-Gln-(NMe)Arg-Tyr-NH2
Second: Ac-Ile-Lys-Pqa-Arg-His-Tyr-Leu-Asn-Trp-Val-Thr-Arg-Gln-(NMe)Arg-Tyr-NH2
The isolated mass of the first is higher: 118 mg for the first, 53 mg for the second.

Compared with “Ac-Ile-Lys-Ppa-Arg-His-Tyr-Leu-Asn-Trp-Val-Thr-Arg-Gln-(NMe)Arg-Tyr-NH2”, “Ac-Ile-Lys-Pdp-Arg-His-Tyr-Leu-Asn-Trp-Val-Thr-Arg-Gln-(NMe)Arg-Tyr-NH2” is lower in isolated yield: 21% for the first, 3% for the second.

“Ac-Ile-Lys-Bqa-Arg-His-Tyr-Leu-Asn-Trp-Val-Thr-Arg-Gln-(NMe)Arg-Tyr-NH2” and “Ac-Ile-Lys-Dqa-Arg-His-Tyr-Leu-Asn-Trp-Val-Thr-Arg-Gln-(NMe)Arg-Tyr-NH2” are the same in isolated yield: 4% for the first, 4% for the second.

Compared with “Ac-Ile-Lys-Appa-Arg-His-Tyr-Leu-Asn-Trp-Val-Thr-Arg-Gln-(NMe)Arg-Tyr-NH2”, “Ac-Ile-Lys-Cip-Arg-His-Tyr-Leu-Asn-Trp-Val-Thr-Arg-Gln-(NMe)Arg-Tyr-NH2” is lower in isolated yield: 17% for the first, 3% for the second.

Compared with “Ac-Ile-Lys-HomPqa-Arg-His-Tyr-Leu-Asn-Trp-Val-Thr-Arg-Gln-(NMe)Arg-Tyr-NH2”, “Ac-Ile-Lys-Cba-Arg-His-Tyr-Leu-Asn-Trp-Val-Thr-Arg-Gln-(NMe)Arg-Tyr-NH2” is higher in isolated yield: 2% for the first, 3.2% for the second.

Compared with “Ac-Ile-Lys-Pipa-Arg-His-Tyr-Leu-Asn-Trp-Val-Thr-Arg-Gln-(NMe)Arg-Tyr-NH2”, “Ac-Ile-Lys-Pqa-Arg-His-Tyr-Leu-Asn-Trp-Val-Thr-Arg-Gln-(NMe)Arg-Tyr-NH2” is lower in isolated yield: 21% for the first, 9% for the second.
